Results on one compound are retold here after US10463671B2, “Combination therapy for treating cancer” (Epizyme, Inc., priority 2013, dated 2019).

For experiment [1], the system named is SU-DHL-5 cells. The experiment is described as follows: Medium throughput combination proliferation assay (CellTiter-Glo, Chou-Talalay CI / potency shift). Conditions: Homo sapiens, read-out: Potency (Compound 44 IC50). (In general: ATP-based viability assays read luminescence as a measure of living cells.)
For experiment [2], the system named is OCI-LY19 cells. The description is as above. The note with it: Homo sapiens, read-out: Potency (Compound 44 IC50).
In experiment [3] the test system is Toledo cells. Described as above. Conditions: read-out: Potency (Compound 44 IC50), calculated after 11 days of treatment.
Experiment [4] relates to WSU-DLCL2 cells. The description is as above. Conditions: Homo sapiens, WSUDLCL2, […], read-out: Potency (Compound 44 IC50).
The subject of experiment [5] is SU-DHL-10 cells. Described as above. The note with it: read-out: Potency (Compound 44 IC50), calculated after 7 days.
In experiment [6] the test system is SU-DHL10 cells. The experiment is described as follows: cells. Conditions: Homo sapiens, SU-DHL10, read-out: 7 Day Cpd44 IC50, 4 d Pred Pre/ 3 d Co-treat, SU-DHL10 (Y646-Sens); 4 d prednisolone then 3 d Cpd44 + prednisolone.
The subject of experiment [7] is DOHH2 cells. The experiment is described as follows: Medium throughput combination proliferation assay (CellTiter-Glo, Chou-Talalay CI / potency shift). Conditions: read-out: Potency (Compound 44 IC50); DOHH-2; calculated after 7 days.

Each structure is given as a SMILES string. pIC50: −log10 of the molar value. Bounds are passed on as bounds.

As to `CCN(c1cc(-c2ccc(CN3CCOCC3)cc2)cc(C(=O)NCc2c(C)cc(C)[nH]c2=O)c1C)C1CCOCC1` [Compound 44], the pIC50 in experiment [1] was 5.48; in experiment [2], less than 5.00; in experiment [3], less than 5.00; in experiment [4], 6.51; in experiment [5] it was 7.14; in experiment [6], 6.28. In addition, in experiment [7], the pIC50 was less than 5.00.
